{"source": "PubChem BioAssay AID1259308, NCATS – 2017", "screen": "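Knock-downs that increase output of a recombinant reporter protein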 (primary screen)", "cells": "human HEK293 embryonic kidney cells stably expressing firefly luciferase (HEK-CMV-Luc2-Hygro)", "reagent": "single siRNA against human genes, 0.8 pmol siRNA per well", "duration": "72 h", "measurement": "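Luciferase light (ONE-Glo) measured on one replicate plate set and viability (CellTiter-Glo) on the other, scaled to a negative control siRNA, with robust z-scores and luciferase per cell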", "scale": "total luciferase, z-score: higher = more reporter protein produced", "call rule": "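An siRNA counts as active if its total luciferase robust z-score exceeds 3; genes with two or more such siRNAs out of three were retested with fresh siRNAs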", "calls": "active = raised luciferase; inactive = no rise", "note": "The whole screen tested about 59,000 reagents; below is an unselected part. About 1,510 of all reagents (2.6%) count as active. 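Calls use total luciferase alone and ignore viability, so some active siRNAs may act by altering cell number.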 Reagents against one gene are numbered here. Further read-outs or replicates are left out here."}
{"gene":"HOMER3 (homer scaffold protein 3)","reagent no.":1,"total luciferase, z-score":0.132,"activity call":"inactive"}
{"gene":"HOMER3 (homer scaffold protein 3)","reagent no.":2,"total luciferase, z-score":-1.78,"activity call":"inactive"}
{"gene":"HOMER3 (homer scaffold protein 3)","reagent no.":3,"total luciferase, z-score":-0.65,"activity call":"inactive"}
{"gene":"COX7B2 (cytochrome c oxidase subunit 7B2)","reagent no.":1,"total luciferase, z-score":1.33,"activity call":"inactive"}
{"gene":"COX7B2 (cytochrome c oxidase subunit 7B2)","reagent no.":2,"total luciferase, z-score":-2.26,"activity call":"inactive"}
{"gene":"COX7B2 (cytochrome c oxidase subunit 7B2)","reagent no.":3,"total luciferase, z-score":0.21,"activity call":"inactive"}
{"gene":"ST8SIA5 (ST8 alpha-N-acetyl-neuraminide alpha-2,8-sialyltransferase 5)","reagent no.":1,"total luciferase, z-score":0.812,"activity call":"inactive"}
{"gene":"ST8SIA5 (ST8 alpha-N-acetyl-neuraminide alpha-2,8-sialyltransferase 5)","reagent no.":2,"total luciferase, z-score":-0.514,"activity call":"inactive"}
{"gene":"ST8SIA5 (ST8 alpha-N-acetyl-neuraminide alpha-2,8-sialyltransferase 5)","reagent no.":3,"total luciferase, z-score":-0.493,"activity call":"inactive"}
{"gene":"CNOT4 (CCR4-NOT transcription complex subunit 4)","reagent no.":1,"total luciferase, z-score":-0.519,"activity call":"inactive"}
{"gene":"CNOT4 (CCR4-NOT transcription complex subunit 4)","reagent no.":2,"total luciferase, z-score":2.34,"activity call":"inactive"}
{"gene":"CNOT4 (CCR4-NOT transcription complex subunit 4)","reagent no.":3,"total luciferase, z-score":-0.708,"activity call":"inactive"}
{"gene":"UPF1 (UPF1 RNA helicase and ATPase)","reagent no.":1,"total luciferase, z-score":4.9,"activity call":"active"}
{"gene":"UPF1 (UPF1 RNA helicase and ATPase)","reagent no.":2,"total luciferase, z-score":1.34,"activity call":"inactive"}
{"gene":"UPF1 (UPF1 RNA helicase and ATPase)","reagent no.":3,"total luciferase, z-score":2.42,"activity call":"inactive"}
{"gene":"WDR4","reagent no.":1,"total luciferase, z-score":-0.0446,"activity call":"inactive"}
{"gene":"WDR4","reagent no.":2,"total luciferase, z-score":0.784,"activity call":"inactive"}
{"gene":"WDR4","reagent no.":3,"total luciferase, z-score":3.99,"activity call":"active"}
{"gene":"SPART (spartin)","reagent no.":1,"total luciferase, z-score":-0.174,"activity call":"inactive"}
{"gene":"SPART (spartin)","reagent no.":2,"total luciferase, z-score":-0.297,"activity call":"inactive"}
{"gene":"SPART (spartin)","reagent no.":3,"total luciferase, z-score":0.627,"activity call":"inactive"}

Already shown: 4 of the entries above.
{"gene":"HOMER3 (homer scaffold protein 3)","reagent no.":3,"total luciferase, z-score":-0.65,"activity call":"inactive"}
{"gene":"COX7B2 (cytochrome c oxidase subunit 7B2)","reagent no.":1,"total luciferase, z-score":1.33,"activity call":"inactive"}
{"gene":"COX7B2 (cytochrome c oxidase subunit 7B2)","reagent no.":2,"total luciferase, z-score":-2.26,"activity call":"inactive"}
{"gene":"COX7B2 (cytochrome c oxidase subunit 7B2)","reagent no.":3,"total luciferase, z-score":0.21,"activity call":"inactive"}
